Binding data for 2 substances are collected here from paper PMC10937394.

The chains behind the UniProt entries cited, without tags or fusion partners.
UniProt O54983: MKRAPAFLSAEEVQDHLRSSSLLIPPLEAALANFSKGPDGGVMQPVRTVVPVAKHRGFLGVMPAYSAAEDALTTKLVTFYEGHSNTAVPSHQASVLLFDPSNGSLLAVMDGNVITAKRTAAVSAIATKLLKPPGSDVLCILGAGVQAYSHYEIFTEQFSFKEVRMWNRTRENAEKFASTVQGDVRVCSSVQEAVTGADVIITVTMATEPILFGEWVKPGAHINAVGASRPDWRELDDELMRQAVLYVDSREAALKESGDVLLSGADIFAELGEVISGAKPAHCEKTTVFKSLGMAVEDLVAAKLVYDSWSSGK
UniProt P20357: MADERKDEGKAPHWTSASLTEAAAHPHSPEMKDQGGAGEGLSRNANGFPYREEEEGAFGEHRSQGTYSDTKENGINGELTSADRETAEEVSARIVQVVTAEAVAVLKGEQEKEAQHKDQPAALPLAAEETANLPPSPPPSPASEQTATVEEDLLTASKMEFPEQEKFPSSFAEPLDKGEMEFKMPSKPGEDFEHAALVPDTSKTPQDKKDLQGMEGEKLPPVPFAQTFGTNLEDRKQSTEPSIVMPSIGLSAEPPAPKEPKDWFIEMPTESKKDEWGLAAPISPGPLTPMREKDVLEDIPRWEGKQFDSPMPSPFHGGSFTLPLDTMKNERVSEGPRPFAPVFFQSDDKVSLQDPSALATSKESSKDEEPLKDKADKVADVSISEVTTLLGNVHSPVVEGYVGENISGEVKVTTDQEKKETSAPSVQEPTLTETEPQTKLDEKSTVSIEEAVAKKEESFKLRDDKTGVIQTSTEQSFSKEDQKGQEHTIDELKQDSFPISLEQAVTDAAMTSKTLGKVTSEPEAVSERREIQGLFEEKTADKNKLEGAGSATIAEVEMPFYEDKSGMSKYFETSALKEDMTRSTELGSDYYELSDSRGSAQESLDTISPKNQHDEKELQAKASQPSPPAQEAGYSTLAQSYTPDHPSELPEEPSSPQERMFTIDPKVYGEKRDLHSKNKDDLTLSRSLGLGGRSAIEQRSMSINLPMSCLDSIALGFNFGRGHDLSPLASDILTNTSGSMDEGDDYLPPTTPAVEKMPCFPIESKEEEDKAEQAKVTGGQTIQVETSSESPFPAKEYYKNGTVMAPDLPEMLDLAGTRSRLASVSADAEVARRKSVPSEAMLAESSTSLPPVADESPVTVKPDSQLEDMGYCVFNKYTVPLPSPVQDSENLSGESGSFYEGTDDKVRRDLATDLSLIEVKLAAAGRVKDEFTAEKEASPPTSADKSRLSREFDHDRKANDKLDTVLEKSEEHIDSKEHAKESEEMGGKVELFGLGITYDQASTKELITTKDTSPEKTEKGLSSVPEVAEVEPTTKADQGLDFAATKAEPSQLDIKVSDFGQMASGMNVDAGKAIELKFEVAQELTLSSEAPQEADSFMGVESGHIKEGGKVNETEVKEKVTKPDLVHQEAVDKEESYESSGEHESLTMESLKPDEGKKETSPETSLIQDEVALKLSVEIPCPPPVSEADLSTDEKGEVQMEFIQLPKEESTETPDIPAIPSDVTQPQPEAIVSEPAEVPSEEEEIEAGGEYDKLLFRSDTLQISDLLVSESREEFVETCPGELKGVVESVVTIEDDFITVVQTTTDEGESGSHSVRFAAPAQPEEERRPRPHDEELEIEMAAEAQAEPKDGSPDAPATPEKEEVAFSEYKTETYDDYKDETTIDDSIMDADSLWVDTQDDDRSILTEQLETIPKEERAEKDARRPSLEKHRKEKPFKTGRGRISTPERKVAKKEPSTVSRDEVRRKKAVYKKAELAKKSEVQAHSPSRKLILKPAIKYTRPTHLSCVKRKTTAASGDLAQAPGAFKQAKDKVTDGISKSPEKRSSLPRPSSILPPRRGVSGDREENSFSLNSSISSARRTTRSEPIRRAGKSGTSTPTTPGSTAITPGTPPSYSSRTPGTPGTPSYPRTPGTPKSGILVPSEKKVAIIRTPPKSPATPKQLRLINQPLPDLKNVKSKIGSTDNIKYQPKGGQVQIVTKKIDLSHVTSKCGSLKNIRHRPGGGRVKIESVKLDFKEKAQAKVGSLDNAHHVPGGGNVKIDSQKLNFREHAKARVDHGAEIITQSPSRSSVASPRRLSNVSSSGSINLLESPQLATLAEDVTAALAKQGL
UniProt P70398: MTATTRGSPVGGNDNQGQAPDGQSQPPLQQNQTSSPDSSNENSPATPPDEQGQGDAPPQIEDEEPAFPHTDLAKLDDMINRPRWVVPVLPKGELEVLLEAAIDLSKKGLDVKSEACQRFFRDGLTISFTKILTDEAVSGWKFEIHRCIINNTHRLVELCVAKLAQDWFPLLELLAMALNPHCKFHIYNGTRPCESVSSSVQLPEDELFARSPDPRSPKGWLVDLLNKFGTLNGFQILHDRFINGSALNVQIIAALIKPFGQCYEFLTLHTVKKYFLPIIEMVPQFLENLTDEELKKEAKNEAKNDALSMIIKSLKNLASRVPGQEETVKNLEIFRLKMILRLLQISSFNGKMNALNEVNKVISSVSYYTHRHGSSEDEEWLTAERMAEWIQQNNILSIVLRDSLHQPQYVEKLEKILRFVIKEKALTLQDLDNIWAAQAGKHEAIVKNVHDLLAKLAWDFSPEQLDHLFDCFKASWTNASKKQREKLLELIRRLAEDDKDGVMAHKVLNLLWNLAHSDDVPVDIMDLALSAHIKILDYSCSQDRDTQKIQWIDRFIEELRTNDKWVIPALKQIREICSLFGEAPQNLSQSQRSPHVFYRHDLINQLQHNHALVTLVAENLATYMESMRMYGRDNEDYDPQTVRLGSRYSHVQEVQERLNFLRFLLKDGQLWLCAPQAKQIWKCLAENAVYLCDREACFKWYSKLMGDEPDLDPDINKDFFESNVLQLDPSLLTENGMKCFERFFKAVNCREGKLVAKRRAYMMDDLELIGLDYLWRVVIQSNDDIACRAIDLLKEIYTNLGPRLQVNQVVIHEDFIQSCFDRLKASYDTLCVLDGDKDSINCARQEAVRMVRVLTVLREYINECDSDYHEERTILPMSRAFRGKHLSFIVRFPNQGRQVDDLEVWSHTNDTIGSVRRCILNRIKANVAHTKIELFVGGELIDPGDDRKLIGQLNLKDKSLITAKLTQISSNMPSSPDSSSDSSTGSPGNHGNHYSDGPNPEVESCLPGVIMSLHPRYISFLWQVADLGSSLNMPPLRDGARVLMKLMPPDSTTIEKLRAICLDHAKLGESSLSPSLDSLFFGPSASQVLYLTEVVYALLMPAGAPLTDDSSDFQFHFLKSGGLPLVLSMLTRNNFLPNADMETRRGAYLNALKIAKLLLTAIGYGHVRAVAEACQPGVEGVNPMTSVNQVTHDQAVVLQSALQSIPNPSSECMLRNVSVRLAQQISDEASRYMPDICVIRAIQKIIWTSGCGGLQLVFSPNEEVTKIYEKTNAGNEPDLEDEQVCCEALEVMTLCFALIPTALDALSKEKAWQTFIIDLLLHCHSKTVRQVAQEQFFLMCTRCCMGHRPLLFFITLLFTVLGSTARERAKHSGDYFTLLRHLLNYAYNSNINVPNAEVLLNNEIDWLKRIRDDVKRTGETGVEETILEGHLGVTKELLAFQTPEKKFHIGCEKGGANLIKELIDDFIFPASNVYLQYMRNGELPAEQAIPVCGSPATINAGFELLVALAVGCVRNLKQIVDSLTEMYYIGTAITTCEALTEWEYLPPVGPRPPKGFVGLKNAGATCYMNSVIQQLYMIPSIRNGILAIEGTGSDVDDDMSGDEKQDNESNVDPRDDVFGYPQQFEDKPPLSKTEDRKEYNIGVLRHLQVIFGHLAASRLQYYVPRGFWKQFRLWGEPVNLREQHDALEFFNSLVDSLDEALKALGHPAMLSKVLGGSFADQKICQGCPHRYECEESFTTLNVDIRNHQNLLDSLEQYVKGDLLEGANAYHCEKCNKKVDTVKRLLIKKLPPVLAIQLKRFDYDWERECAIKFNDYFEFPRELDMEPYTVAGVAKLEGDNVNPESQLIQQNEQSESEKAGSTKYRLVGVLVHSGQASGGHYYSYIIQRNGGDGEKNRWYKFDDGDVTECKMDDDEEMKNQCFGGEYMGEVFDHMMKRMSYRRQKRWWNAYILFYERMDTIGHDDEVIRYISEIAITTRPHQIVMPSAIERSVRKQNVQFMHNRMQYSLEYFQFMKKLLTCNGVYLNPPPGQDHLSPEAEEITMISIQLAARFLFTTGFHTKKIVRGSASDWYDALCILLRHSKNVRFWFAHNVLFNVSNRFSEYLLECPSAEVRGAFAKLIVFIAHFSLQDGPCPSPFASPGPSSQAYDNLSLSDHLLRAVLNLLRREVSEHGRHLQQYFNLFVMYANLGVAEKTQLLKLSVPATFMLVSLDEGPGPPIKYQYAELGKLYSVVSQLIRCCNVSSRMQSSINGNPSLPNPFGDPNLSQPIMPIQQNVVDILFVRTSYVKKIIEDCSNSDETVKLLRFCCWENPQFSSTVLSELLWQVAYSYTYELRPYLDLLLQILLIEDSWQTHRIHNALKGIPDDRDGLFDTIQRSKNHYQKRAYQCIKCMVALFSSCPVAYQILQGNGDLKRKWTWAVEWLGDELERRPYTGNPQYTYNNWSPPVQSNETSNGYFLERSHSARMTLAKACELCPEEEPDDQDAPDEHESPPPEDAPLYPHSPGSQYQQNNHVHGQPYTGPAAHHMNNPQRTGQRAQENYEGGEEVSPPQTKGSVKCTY

In the assay the target is μ-crystallin (mouse (endogenous in mouse striatum)) (UniProt O54983). The experiment in a line: proximity ligation; Duolink PLA on fixed-frozen 20 μm coronal sections of mouse striatum with tdTomato-labelled astrocytes; mouse anti-µ-crystallin with rabbit anti-USP9X or rabbit anti-MAPT; puncta counted in each astrocyte territory; detects native proteins within about 40 nm; negative controls: dorsolateral striatum astrocytes that lack μ-crystallin, and omission of one PLA probe.

No constants are given. Whether binding was seen depends on the method and setting. Binding seen in cells or lysates may run through a third protein. Some results given as binding are weak or reduced against the parent protein; the word gives no strength.

As to MAP2 (from UniProt P20357 1-1828), the binding entry is “binds”.

With USP9X (from UniProt P70398 1-2559), the binding entry is on record as “binds”.
